# From the supplement of paper PMC10849652
# Chains of the proteins cited; added tags and fusions are not shown. Lines headed by an entry give the natural chain unless they say otherwise; changes in a name come on top.
# UniProt Q969K3: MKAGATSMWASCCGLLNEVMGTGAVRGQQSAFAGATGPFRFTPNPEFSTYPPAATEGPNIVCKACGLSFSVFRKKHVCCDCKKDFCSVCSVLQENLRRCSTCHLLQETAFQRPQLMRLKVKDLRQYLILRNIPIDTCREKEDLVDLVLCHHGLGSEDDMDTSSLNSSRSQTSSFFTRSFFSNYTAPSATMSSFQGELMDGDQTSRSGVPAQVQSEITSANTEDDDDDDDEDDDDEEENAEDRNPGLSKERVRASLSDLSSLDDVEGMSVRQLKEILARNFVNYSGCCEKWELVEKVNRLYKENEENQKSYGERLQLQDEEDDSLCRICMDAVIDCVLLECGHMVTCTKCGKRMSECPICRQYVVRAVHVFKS
# UniProt P05387, whole entry, looked up: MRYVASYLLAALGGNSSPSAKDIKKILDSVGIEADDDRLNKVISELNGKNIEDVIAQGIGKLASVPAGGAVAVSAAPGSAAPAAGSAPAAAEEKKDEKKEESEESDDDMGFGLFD
# UniProt O95059: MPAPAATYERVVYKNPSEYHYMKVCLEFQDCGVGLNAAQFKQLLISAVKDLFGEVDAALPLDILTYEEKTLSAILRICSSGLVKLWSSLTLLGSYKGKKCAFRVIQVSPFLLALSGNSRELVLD
# UniProt Q9NQG5: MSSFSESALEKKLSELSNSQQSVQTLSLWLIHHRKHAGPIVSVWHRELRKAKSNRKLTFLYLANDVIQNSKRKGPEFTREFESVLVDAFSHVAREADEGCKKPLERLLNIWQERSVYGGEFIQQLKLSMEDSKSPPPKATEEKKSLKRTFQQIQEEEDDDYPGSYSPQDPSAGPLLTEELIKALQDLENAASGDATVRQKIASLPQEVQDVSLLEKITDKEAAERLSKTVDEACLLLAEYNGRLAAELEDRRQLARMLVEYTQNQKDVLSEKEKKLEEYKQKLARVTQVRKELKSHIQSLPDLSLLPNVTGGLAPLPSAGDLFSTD
# UniProt Q5VZM2, whole entry, looked up: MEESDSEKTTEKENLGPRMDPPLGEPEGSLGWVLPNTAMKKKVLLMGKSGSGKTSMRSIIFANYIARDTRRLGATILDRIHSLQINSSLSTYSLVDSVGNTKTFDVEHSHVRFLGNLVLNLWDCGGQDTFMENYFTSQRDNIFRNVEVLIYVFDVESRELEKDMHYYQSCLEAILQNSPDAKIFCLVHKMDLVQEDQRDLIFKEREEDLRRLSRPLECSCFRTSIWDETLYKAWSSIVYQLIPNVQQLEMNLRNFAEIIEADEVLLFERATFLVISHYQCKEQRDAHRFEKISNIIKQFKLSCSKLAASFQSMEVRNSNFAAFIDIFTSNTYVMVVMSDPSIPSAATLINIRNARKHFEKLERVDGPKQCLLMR
# UniProt Q96BH1: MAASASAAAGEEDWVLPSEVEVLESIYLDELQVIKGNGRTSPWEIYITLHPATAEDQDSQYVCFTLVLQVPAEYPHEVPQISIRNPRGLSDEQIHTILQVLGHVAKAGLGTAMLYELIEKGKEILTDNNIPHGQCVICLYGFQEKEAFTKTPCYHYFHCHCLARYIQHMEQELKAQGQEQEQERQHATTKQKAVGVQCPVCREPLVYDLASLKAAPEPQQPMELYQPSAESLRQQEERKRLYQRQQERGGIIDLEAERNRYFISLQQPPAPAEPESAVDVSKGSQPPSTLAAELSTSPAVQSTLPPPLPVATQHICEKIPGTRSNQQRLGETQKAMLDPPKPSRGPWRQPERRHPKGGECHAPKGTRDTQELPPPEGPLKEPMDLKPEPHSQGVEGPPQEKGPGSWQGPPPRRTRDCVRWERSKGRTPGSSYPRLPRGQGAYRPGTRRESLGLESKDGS
# UniProt P15927: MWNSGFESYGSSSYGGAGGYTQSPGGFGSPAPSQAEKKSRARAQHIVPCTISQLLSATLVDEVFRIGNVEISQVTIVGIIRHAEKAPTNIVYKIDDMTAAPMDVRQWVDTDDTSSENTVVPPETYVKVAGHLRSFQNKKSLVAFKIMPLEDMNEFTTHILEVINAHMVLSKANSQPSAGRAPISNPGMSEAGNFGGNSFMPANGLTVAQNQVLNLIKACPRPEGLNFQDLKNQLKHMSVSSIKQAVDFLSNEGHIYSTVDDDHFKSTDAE
# The other results are listed elsewhere or left out.
# Assays:
# Assay in all cases: log2 fold change, soluble protein after heating vs DMSO (PISA); higher = thermal stabilisation; K562 cells, 10 uM, 30 min; active = over 0.2 and 3.5 SD of the protein, either way, in both replicates (recomputed)
# [1] = compound: CC[C@@H]1C(=O)N(C)c2cnc(Nc3ccc(C(=O)NC4CCN(C)CC4)cc3OC)nc2N1C1CCCC1
# Summary of the method: (§1)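 Thermal stability values are relative to control samples and come from duplicates. They are expressed as log2 fold changes. For measurement, K562 cells (2×10^6 cells/mL) received 10 μM compound for 30 min, and aliquots were heated for 3 min over 48°C-58°C, pooled, and extracted at 4°C in PBS with 0.5% NP-40. Soluble protein, the supernatant after 21,000xg for 90 min, was quantified by TMTpro 16plex LC-MS/MS with equalised channel sums.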
# volasertib = compound: CC[C@@H]1C(=O)N(C)c2cnc(Nc3ccc(C(=O)N[C@H]4CC[C@H](N5CCN(CC6CC6)CC5)CC4)cc3OC)nc2N1C(C)C [volasertib]
# Summary of the method: as §1
# [2] = compound: CC[C@H](C)N1C=C(C2=C(C=C(C=C21)C3=CN=C(C=C3)N4CCNCC4)C(=O)NCC5=C(C=C(NC5=O)C)C)C
# Summary of the method: as §1
# epoxomicin = compound: CC[C@H](C)[C@@H](C(=O)N[C@@H]([C@@H](C)O)C(=O)N[C@@H](CC(C)C)C(=O)[C@]1(CO1)C)NC(=O)[C@H]([C@@H](C)CC)N(C)C(=O)C [epoxomicin]
# Summary of the method: as §1
# [3] = compound: CCn1c(C(=O)N(C2CC2)C2CC2)cc2c3c(ncn3C)c(Nc3cc(C)n(C)n3)nc21
# Summary of the method: as §1
# [4] = compound: CCn1cc(-c2ccnc3[nH]c(-c4cccc(CN(C)C)c4)cc23)c(-c2ccc(NC(=O)N(C)C)cc2)n1
# Summary of the method: as §1
# [5] = compound: CN(C)CC(=O)Nc1ccc2[nH]c(=O)c3ccccc3c2c1
# Summary of the method: as §1
# rosiglitazone = compound: CN(CCOC1=CC=C(C=C1)C[C@H]2C(=O)NC(=O)S2)C3=CC=CC=N3 (racemic) [rosiglitazone]
# Summary of the method: as §1
# [6] = compound: CN1C2=C(C3=C1C(=O)N(N=C3)CC4=CC(=CC=C4)N)SC(=C2)S(=O)C
# Summary of the method: as §1
# [7] = compound: CN1CCC(CNc2ccc3ncc(-c4cccc(OC(F)(F)F)c4)n3n2)CC1
# Summary of the method: as §1
Target,log2 fold change [1],log2 fold change (volasertib),log2 fold change [2],log2 fold change (epoxomicin),log2 fold change [3],log2 fold change [4],log2 fold change [5],log2 fold change (rosiglitazone),log2 fold change [6],log2 fold change [7]
RNF34 isoform 2 (UniProt Q969K3),inactive: -0.099,inactive: -0.158,inactive: -0.002,inactive: 0.05,inactive: -0.026,inactive: -0.074,inactive: -0.239,inactive: 0.049,inactive: -0.114,inactive: -0.232
RPLP2 (UniProt P05387),inactive: 0.252,inactive: 0.649,inactive: -0.021,inactive: -0.516,inactive: 0.093,inactive: 0.317,inactive: -0.223,inactive: -0.209,inactive: 0.303,inactive: 0.38
RPS3A (UniProt P61247),inactive: 0.133,inactive: 0.339,inactive: 0.02,inactive: -0.124,,inactive: 0.114,inactive: -0.063,,inactive: 0.138,inactive: 0.105
RPP14 (UniProt O95059),inactive: 0.079,inactive: 0.07,inactive: -0.048,inactive: -0.06,,inactive: 0.08,inactive: -0.04,,inactive: -0.076,active: 0.244
RPRD1B (UniProt Q9NQG5),inactive: -0.057,active: -0.245,inactive: 0.077,inactive: 0.075,,inactive: -0.005,inactive: 0,,inactive: -0.059,inactive: -0.077
RRAGB (UniProt Q5VZM2),inactive: 0,inactive: 0.011,inactive: -0.017,inactive: 0.047,,inactive: -0.041,inactive: -0.027,,inactive: -0.022,inactive: -0.191
RNF25 (UniProt Q96BH1),inactive: -0.029,inactive: -0.061,inactive: 0.02,inactive: 0.028,inactive: -0.014,inactive: -0.161,inactive: 0.031,inactive: -0.009,inactive: -0.092,inactive: 0.009
RPA2 isoform 3 (UniProt P15927),inactive: 0.015,inactive: -0.01,inactive: -0.006,inactive: 0.004,inactive: 0.011,inactive: 0.021,inactive: -0.003,inactive: 0.028,inactive: -0.038,inactive: -0.1
